Test results: article PMC5312288
Results are given in words; binding and its absence hold for the method and conditions named. Binding seen in cells or lysates may run through a third protein. Some binding calls cover weakened binding; strength is not graded here.

Protein sequences, listed by entry. Tags and fused reporters are not part of them.
UniProt P49327: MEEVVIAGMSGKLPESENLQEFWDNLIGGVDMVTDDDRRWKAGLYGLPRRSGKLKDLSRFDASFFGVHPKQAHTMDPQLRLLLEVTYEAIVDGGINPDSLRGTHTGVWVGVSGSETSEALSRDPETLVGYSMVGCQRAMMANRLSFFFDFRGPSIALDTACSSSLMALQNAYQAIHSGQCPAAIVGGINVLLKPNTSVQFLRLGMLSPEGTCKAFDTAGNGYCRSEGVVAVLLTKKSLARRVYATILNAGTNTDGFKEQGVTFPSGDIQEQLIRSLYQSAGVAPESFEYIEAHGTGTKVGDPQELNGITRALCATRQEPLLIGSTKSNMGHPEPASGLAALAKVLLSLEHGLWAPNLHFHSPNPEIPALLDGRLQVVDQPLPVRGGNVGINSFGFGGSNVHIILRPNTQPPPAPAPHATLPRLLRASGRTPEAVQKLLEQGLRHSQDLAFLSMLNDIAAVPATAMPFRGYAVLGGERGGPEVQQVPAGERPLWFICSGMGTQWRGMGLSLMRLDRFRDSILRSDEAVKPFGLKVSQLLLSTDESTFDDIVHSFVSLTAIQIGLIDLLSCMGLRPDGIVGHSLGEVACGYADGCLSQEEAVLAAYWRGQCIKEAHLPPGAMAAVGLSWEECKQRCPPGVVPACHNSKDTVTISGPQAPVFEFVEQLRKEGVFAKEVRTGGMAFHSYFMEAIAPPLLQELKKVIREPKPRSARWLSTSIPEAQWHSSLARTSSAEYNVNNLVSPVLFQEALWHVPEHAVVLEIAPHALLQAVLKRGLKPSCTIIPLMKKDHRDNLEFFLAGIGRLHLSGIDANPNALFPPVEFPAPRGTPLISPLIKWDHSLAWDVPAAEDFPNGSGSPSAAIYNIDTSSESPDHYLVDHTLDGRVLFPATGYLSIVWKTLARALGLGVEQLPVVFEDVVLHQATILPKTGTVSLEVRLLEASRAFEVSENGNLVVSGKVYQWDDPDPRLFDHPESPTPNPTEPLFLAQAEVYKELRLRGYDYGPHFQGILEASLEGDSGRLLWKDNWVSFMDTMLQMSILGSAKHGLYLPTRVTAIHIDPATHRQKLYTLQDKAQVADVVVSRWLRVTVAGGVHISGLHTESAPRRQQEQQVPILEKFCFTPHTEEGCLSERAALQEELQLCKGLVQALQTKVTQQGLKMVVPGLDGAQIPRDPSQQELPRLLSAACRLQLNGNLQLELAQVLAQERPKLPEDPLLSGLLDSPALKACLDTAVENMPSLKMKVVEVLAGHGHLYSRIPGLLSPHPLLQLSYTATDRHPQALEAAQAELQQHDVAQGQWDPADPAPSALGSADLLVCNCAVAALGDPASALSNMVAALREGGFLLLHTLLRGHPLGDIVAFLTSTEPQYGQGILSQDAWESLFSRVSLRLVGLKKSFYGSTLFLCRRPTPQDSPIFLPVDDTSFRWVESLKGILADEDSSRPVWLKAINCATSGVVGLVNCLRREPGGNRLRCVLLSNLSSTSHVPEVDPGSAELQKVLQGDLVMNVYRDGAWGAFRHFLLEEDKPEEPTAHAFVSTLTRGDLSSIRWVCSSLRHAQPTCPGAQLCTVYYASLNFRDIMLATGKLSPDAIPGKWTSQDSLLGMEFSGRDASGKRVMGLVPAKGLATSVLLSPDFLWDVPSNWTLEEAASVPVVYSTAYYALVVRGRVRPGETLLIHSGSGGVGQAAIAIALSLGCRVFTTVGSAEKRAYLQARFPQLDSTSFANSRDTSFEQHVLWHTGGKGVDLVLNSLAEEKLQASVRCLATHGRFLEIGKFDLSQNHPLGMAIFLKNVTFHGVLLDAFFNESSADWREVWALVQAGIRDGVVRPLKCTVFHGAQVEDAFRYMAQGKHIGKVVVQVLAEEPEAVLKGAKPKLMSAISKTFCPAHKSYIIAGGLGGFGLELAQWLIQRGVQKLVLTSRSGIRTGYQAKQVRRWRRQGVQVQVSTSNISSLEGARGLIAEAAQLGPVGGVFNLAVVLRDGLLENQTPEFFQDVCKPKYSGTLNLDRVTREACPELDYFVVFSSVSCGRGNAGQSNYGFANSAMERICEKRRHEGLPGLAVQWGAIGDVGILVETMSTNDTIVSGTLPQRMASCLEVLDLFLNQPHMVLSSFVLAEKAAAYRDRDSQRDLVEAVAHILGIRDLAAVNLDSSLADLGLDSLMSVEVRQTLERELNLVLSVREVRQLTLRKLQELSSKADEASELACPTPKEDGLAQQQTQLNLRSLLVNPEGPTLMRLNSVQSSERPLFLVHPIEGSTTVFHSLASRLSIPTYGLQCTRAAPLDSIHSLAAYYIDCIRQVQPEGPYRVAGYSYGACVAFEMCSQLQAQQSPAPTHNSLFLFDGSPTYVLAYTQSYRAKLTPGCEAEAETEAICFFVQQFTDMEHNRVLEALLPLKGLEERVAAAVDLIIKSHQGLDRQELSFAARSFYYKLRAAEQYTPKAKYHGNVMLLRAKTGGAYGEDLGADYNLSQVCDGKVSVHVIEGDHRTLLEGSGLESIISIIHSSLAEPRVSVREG

Molecular target: Fatty acid synthase (human (endogenous in HMEC, SUM149PT, SUM1315MO2)) (UniProt P49327)
Experiment: co-IP; reverse: lysates of SUM149PT and SUM1315MO2 cells immunoprecipitated with anti-FASN antibody, immunoblotted for OPG and FASN

B1: Osteoprotegerin (protein, UniProt O00300 22-401)
chain: ETFPPKYLHYDEETSHQLLCDKCPPGTYLKQHCTAKWKTVCAPCPDHYYTDSWHTSDECLYCSPVCKELQYVKQECNRTHNRVCECKEGRYLEIEFCLKHRSCPPGFGVVQAGTPERNTVCKRCPDGFFSNETSSKAPCRKHTNCSVFGLLLTQKGNATHDNICSGNSESTQKCGIDVTLCEEAFFRFAVPTKFTPNWLSVLVDNLPGTKVNAESVERIKRQHSSQEQTFQLLKLWKHQNKDQDIVKKIIQDIDLCENSVQRHIGHANLTFEQLRSLMESLPGKKVGAEDIEKTIKACKPSDQILKLLSLWRIKNGDQDTLKGLMHALKHSKTYHFPKTVTQSLKKTIRFLHSFTMYKLYQKLFLEMIGNQVQSVKISCL
In the case of B1, the binding is reported as “binds”.
